# Results from one PubChem assay

Source: PubChem BioAssay AID504749 (NCATS, 2011).

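Malaria parasite (P. falciparum) lines kept in red blood cells; parasite DNA is measured by SYBR Green fluorescence after lysis, 72 h after compound addition. Each compound was titrated across a series from about 0.000037 to 29 µM. The number is the fitted AC50, the concentration giving a half-maximal change in signal; a lower value means higher potency, whether the curve shows a decrease or an increase. Calls follow the curve class and fit quality: every row here is inconclusive, covering signal-raising curves and weak, poorly fitted, partial or highest-dose-only inhibition curves.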

Values are in µM. All entries here are filed as inconclusive. These entries are mostly ones the record files as inconclusive; other results of the assay are not listed here. A potency from a partial, single-point or poor curve is only a rough figure. Some entries filed as inconclusive have a full curve. The first word of each remark tells which way the curve ran; it can be opposite to the aim of the assay.

| # | compound | setting | potency (µM) | remark |
|---|---|---|---|---|
| 1 | `C[C@@H](NCCCc1cccc(C(F)(F)F)c1)c1cccc2ccccc12` | CP268 | 16.94 | inhibitor, single point |
| 2 | `C[C@@H](NCCCc1cccc(C(F)(F)F)c1)c1cccc2ccccc12` | JCK | 17.78 | inhibitor, single point |
| 3 | `C[C@@H](NCCCc1cccc(C(F)(F)F)c1)c1cccc2ccccc12` | CP192 | 15.1 | inhibitor, single point |
| 4 | `C[C@@H](NCCCc1cccc(C(F)(F)F)c1)c1cccc2ccccc12` | PC49 | 10 | activator |
| 5 | `CC12CC3CC(C)(C1)CC(N)(C3)C2` | CP260 | 10 | inhibitor, single point |
| 6 | `CC12CC3CC(C)(C1)CC(N)(C3)C2` | DIV17 | 0.4256 | inhibitor, partial curve, poor fit |
| 7 | `CC12CC3CC(C)(C1)CC(N)(C3)C2` | DIV14 | 1.694 | inhibitor, partial curve, poor fit |
| 8 | `CC12CC3CC(C)(C1)CC(N)(C3)C2` | CP237 | 1.995 | inhibitor, partial curve |
| 9 | `CC12CC3CC(C)(C1)CC(N)(C3)C2` | GB4 | 1.901 | inhibitor, partial curve |
| 10 | `CC12CC3CC(C)(C1)CC(N)(C3)C2` | PC49 | 2.512 | inhibitor, single point |
| 11 | `CC12CC3CC(C)(C1)CC(N)(C3)C2` | ATS95 | 11.22 | inhibitor, single point |
| 12 | `CC12CC3CC(C)(C1)CC(N)(C3)C2` | CP297 | 3.381 | inhibitor, single point |
| 13 | `CC/C=C\C/C=C\C/C=C\CCCCCCCC(=O)O` | ATS95 | 17.78 | inhibitor, single point |
| 14 | `CC/C=C\C/C=C\C/C=C\CCCCCCCC(=O)O` | PAD | 14.13 | inhibitor, single point |
| 15 | `CC/C=C\C/C=C\C/C=C\CCCCCCCC(=O)O` | CP335 | 1.51 | inhibitor, partial curve |
| 16 | `CC/C=C\C/C=C\C/C=C\CCCCCCCC(=O)O` | 7G8 | 17.78 | inhibitor, single point |
| 17 | `CC/C=C\C/C=C\C/C=C\CCCCCCCC(=O)O` | TAB165 | 19.95 | inhibitor, single point |
| 18 | `COC1C(OC(=O)/C=C/C=C/C=C/C=C/C(=O)O)CCC2(CO2)C1C1(C)OC1CC=C(C)C` (stereo not shown) | CP185 | 0.0355 | inhibitor, full curve |
| 19 | `COC1C(OC(=O)/C=C/C=C/C=C/C=C/C(=O)O)CCC2(CO2)C1C1(C)OC1CC=C(C)C` (stereo not shown) | CP262 | 0.0169 | inhibitor, full curve, poor fit |
| 20 | `COC1C(OC(=O)/C=C/C=C/C=C/C=C/C(=O)O)CCC2(CO2)C1C1(C)OC1CC=C(C)C` (stereo not shown) | N140 | 0.0631 | inhibitor, full curve |
| 21 | `COC1C(OC(=O)/C=C/C=C/C=C/C=C/C(=O)O)CCC2(CO2)C1C1(C)OC1CC=C(C)C` (stereo not shown) | ECU | 0.3162 | inhibitor, partial curve |
| 22 | `COC1C(OC(=O)/C=C/C=C/C=C/C=C/C(=O)O)CCC2(CO2)C1C1(C)OC1CC=C(C)C` (stereo not shown) | CP286 | 0.0398 | inhibitor, full curve |
| 23 | `COC1C(OC(=O)/C=C/C=C/C=C/C=C/C(=O)O)CCC2(CO2)C1C1(C)OC1CC=C(C)C` (stereo not shown) | CP237 | 0.0251 | inhibitor, full curve |
| 24 | `COC1C(OC(=O)/C=C/C=C/C=C/C=C/C(=O)O)CCC2(CO2)C1C1(C)OC1CC=C(C)C` (stereo not shown) | CP269 | 1.694 | inhibitor, partial curve, poor fit |
| 25 | `COC1C(OC(=O)/C=C/C=C/C=C/C=C/C(=O)O)CCC2(CO2)C1C1(C)OC1CC=C(C)C` (stereo not shown) | C2A | 0.0398 | inhibitor, full curve |
| 26 | `COC1C(OC(=O)/C=C/C=C/C=C/C=C/C(=O)O)CCC2(CO2)C1C1(C)OC1CC=C(C)C` (stereo not shown) | DFO2036 | 0.0126 | inhibitor, full curve |
| 27 | `COC1C(OC(=O)/C=C/C=C/C=C/C=C/C(=O)O)CCC2(CO2)C1C1(C)OC1CC=C(C)C` (stereo not shown) | CP238 | 0.0316 | inhibitor, full curve |
| 28 | `COC1C(OC(=O)/C=C/C=C/C=C/C=C/C(=O)O)CCC2(CO2)C1C1(C)OC1CC=C(C)C` (stereo not shown) | CP266 | 0.012 | inhibitor, full curve, poor fit |
| 29 | `COC1C(OC(=O)/C=C/C=C/C=C/C=C/C(=O)O)CCC2(CO2)C1C1(C)OC1CC=C(C)C` (stereo not shown) | CP265 | 5.012 | inhibitor, partial curve, poor fit |
| 30 | `COC1C(OC(=O)/C=C/C=C/C=C/C=C/C(=O)O)CCC2(CO2)C1C1(C)OC1CC=C(C)C` (stereo not shown) | CP305 | 1.51 | inhibitor, partial curve, poor fit |
| 31 | `COC1C(OC(=O)/C=C/C=C/C=C/C=C/C(=O)O)CCC2(CO2)C1C1(C)OC1CC=C(C)C` (stereo not shown) | AA1029 | 0.0398 | inhibitor, full curve |
| 32 | `COc1ccccc1Oc1c(NS(=O)(=O)c2ccc(C(C)(C)C)cc2)nc(-c2ncccn2)nc1OCCO` | TAB165 | 15.85 | inhibitor, single point |
| 33 | `COc1ccccc1Oc1c(NS(=O)(=O)c2ccc(C(C)(C)C)cc2)nc(-c2ncccn2)nc1OCCO` | CP215 | 12 | inhibitor, single point |
| 34 | `CCN(CCCc1ccccc1)CCCc1ccccc1` | ICS | 2.818 | inhibitor, partial curve |
| 35 | `CCN(CCCc1ccccc1)CCCc1ccccc1` | CP237 | 1.122 | inhibitor, full curve, poor fit |
| 36 | `CCN(CCCc1ccccc1)CCCc1ccccc1` | CP291 | 4.548 | inhibitor, partial curve |
| 37 | `CCN(CCCc1ccccc1)CCCc1ccccc1` | TAB165 | 3.548 | inhibitor, partial curve |
| 38 | `CCN(CCCc1ccccc1)CCCc1ccccc1` | P93_24 | 1.995 | inhibitor, partial curve |
| 39 | `CCN(CCCc1ccccc1)CCCc1ccccc1` | P94_40 | 3.162 | inhibitor, partial curve |
| 40 | `CCN(CCCc1ccccc1)CCCc1ccccc1` | CP335 | 8.087 | inhibitor, single point |
| 41 | `CCN(CCCc1ccccc1)CCCc1ccccc1` | CP265 | 3.981 | inhibitor, single point |
| 42 | `CCN(CCCc1ccccc1)CCCc1ccccc1` | TAB109 | 5.012 | inhibitor, partial curve |
| 43 | `CCN(CCCc1ccccc1)CCCc1ccccc1` | CP238 | 4.467 | inhibitor, single point |
| 44 | `CCN(CCCc1ccccc1)CCCc1ccccc1` | CP268 | 5.726 | inhibitor, partial curve, poor fit |
| 45 | `CCN(CCCc1ccccc1)CCCc1ccccc1` | GB4 | 2.031 | inhibitor, partial curve |

Once more, the final 4:

| compound | setting | potency (µM) | remark |
|---|---|---|---|
| `CCN(CCCc1ccccc1)CCCc1ccccc1` | TAB109 | 5.012 | inhibitor, partial curve |
| `CCN(CCCc1ccccc1)CCCc1ccccc1` | CP238 | 4.467 | inhibitor, single point |
| `CCN(CCCc1ccccc1)CCCc1ccccc1` | CP268 | 5.726 | inhibitor, partial curve, poor fit |
| `CCN(CCCc1ccccc1)CCCc1ccccc1` | GB4 | 2.031 | inhibitor, partial curve |